# Data published in patent US20020022215A1 (priority 2000, published 2002).
# For at least one compound, name, drawing or mass did not settle the structure.
# Tested on: E. coli B
# Experiment: Inactivation of E. coli B on porphyrin-containing cellulose acetate membranes
# Assay type: cell-based, Escherichia coli B (ATCC 11303)
# Settings: no UV light
# Protocol: Cultures of E. coli B (ATCC 11303) were grown the day before an experiment to log phase growth in 50 milliliters of tryptic soy broth (TSB) followed by centrifugation at 3000 rpm for 10 minutes and at 4° C. The supernatant was drawn off and discarded and pellets were resuspended in 10 mL of 0.2 M phosphate buffered saline (PBS; pH 7.2). The centrifugation-resuspension process was repeated for a total of three times. Preparations were kept at 4° C. until ready for use. Bacterial cultures were assayed on tryptic soy agar (TSA) by spot or spread plating duplicate 0.04 to 0.1 ml volumes of the serially diluted preparation onto the agar plates, and was enumerated via colony counts after incubation overnight at 44.5° C. Results are expressed as cfu/ml. On the day of an experiment, the stock preparation was serially diluted in PBS to a target concentration of about […] E. coli cells per milliliter for use on membranes and in solution, respectively. Duplicate 0.1 ml volumes of the experimental samples were spread plated on TSA and incubated overnight at 44.5° C.
# When cellulose acetate membranes containing protoporphyrin IX (disodium salt) were exposed to UV light, E. coli B was inactivated by 0.3 log10 cfu/ml in 100 minutes and by about 1.0 log10 (90%) in 300 minutes (FIG. 8).
smiles,measurement,value
C=CC1=C(C)c2cc3[nH]c(cc4nc(cc5[nH]c(cc1n2)c(C)c5CCC(=O)O)C(CCC(=O)O)=C4C)c(C)c3C=C [protoporphyrin IX],concentration of E. coli on membranes not exposed to UV light,No change in concentration
